# Reference: the supplement of paper PMC8728848
# The list shows a part of the results.
# B1: SHCBP1-GST (Homo sapiens), Q8NEM2 (protein)
# chain: MADGSLTGGGLEAAAMAPERMGWAVEQELASLEKGLFQDEDSCSDCSYRDKPGSSLQSFMPEGKTFFPEIFQTNQLLFYERFRAYQDYILADCKASEVQEFTAEFLEKVLEPSGWRAVWHTNVFKVLVEITDVDFAALKAVVRLAEPYLCDSQVSTFTMECMKELLDLKEHRLPLQELWVVFDDSGVFDQTALAIEHVRFFYQNIWRSWDEEEEDEYDYFVRCVEPRLRLHYDILEDRVPSGLIVDYHNLLSQCEESYRKFLNLRSSLSNCNSDSEQENISMVEGLKLYSEMEQLKQKLKLIENPLLRYVFGYQKNSNIQAKGVRSSGQKITHVVSSTMMAGLLRSLLTDRLCQEPGEEEREIQFHSDPLSAINACFEGDTVIVCPGHYVVHGTFSIADSIELEGYGLPDDIVIEKRGKGDTFVDCTGADIKISGIKFVQHDAVEGILIVHRGKTTLENCVLQCETTGVTVRTSAEFLMKNSDLYGAKGAGIEIYPGSQCTLSDNGIHHCKEGILIKDFLDEHYDIPKISMVNNIIHNNEGYGVVLVKPTIFSDLQENAEDGTEENKALKIQTSGEPDVAERVDLEELIECATGKMELCARTDPSEQVEGNCEIVNELIAASTQKGQIKKKRLSELGITQADDNLMSQEMFVGIVGNQFKWNGKGSFGTFLF
# How the values were obtained:
# Experiment in all cases: glycan array binding signal (z-score within array); higher = stronger binding
# Conditions in all cases: glycan notation: IUPAC condensed, linker removed
# [1] = biological target: Fuc(a1-2)[GalNAc(b1-3)]Gal
# How it was run: (§1)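 The binding signal is a Z-score computed within each array and averaged over linkers. Arrays of the same protein sequence at different concentrations or buffers were also averaged together. Data originate from 3228 arrays in the Consortium for Functional Glycomics database, kept only where the protein sequence was available.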
# [2] = biological target: Fuc(a1-3)GlcNAc
# How it was run: as §1
# [3] = biological target: Fuc(a1-3)[Gal(b1-4)]Glc6S
# How it was run: as §1
# [4] = biological target: Fuc(a1-3)[Gal(b1-4)]GlcNAc
# How it was run: as §1
# [5] = biological target: Fuc(a1-3)[Gal(b1-4)]GlcNAc(b1-2)Man
# How it was run: as §1
# [6] = biological target: Fuc(a1-3)[Gal(b1-4)]GlcNAc(b1-2)Man(a1-3)[Fuc(a1-3)[Gal(b1-4)]GlcNAc(b1-2)Man(a1-6)]Man(b1-4)GlcNAc(b1-4)GlcNAc
# How it was run: as §1
# [7] = biological target: Fuc(a1-3)[Gal(b1-4)]GlcNAc(b1-2)Man(a1-3)[Fuc(a1-3)[Gal(b1-4)]GlcNAc(b1-2)Man(a1-6)]Man(b1-4)GlcNAc(b1-4)[Fuc(a1-6)]GlcNAc
# How it was run: as §1
# [8] = biological target: Fuc(a1-3)[Gal(b1-4)]GlcNAc(b1-3)Gal(b1-3)[Fuc(a1-4)]GlcNAc
# How it was run: as §1
# [9] = biological target: Fuc(a1-3)[Gal(b1-4)]GlcNAc(b1-3)Gal(b1-4)[Fuc(a1-3)]GlcNAc
# How it was run: as §1
# [10] = biological target: Fuc(a1-3)[Gal(b1-4)]GlcNAc(b1-3)Gal(b1-4)[Fuc(a1-3)]GlcNAc(b1-3)Gal(b1-4)[Fuc(a1-3)]GlcNAc
# How it was run: as §1
# [11] = biological target: Fuc(a1-3)[Gal(b1-4)]GlcNAc(b1-3)GalNAc
# How it was run: as §1
# [12] = biological target: Fuc(a1-3)[Gal(b1-4)]GlcNAc(b1-6)GalNAc
# How it was run: as §1
# [13] = biological target: Fuc(a1-3)[Gal(b1-4)]GlcNAc(b1-6)[Gal(b1-3)GlcNAc(b1-3)]Gal(b1-4)Glc
# How it was run: as §1
# [14] = biological target: Fuc(a1-3)[Gal(b1-4)]GlcNAc6S
# How it was run: as §1
# [15] = biological target: Fuc(a1-3)[Gal3S(b1-4)]Glc
# How it was run: as §1
# [16] = biological target: Fuc(a1-3)[Gal3S(b1-4)]GlcNAc
# How it was run: as §1
# [17] = biological target: Fuc(a1-3)[Gal3S(b1-4)]GlcNAc6S
# How it was run: as §1
# [18] = biological target: Fuc(a1-3)[GalNAc(b1-4)]GlcNAc
# How it was run: as §1
# [19] = biological target: Fuc(a1-3)[GalNAc(b1-4)]GlcNAc6S
# How it was run: as §1
# [20] = biological target: Fuc(a1-4)GlcNAc
# How it was run: as §1
# [21] = biological target: Fuc(b1-3)GlcNAc
# How it was run: as §1
# [22] = biological target: Gal(a1-2)Gal
# How it was run: as §1
# [23] = biological target: Gal(a1-3)Gal
# How it was run: as §1
# [24] = biological target: Gal(a1-3)Gal(b1-3)GlcNAc
# How it was run: as §1
# [25] = biological target: Gal(a1-3)Gal(b1-3)GlcNAc(b1-2)Man
# How it was run: as §1
# [26] = biological target: Gal(a1-3)Gal(b1-3)GlcNAc(b1-2)Man(a1-3)[Gal(a1-3)Gal(b1-3)GlcNAc(b1-2)Man(a1-6)]Man(b1-4)GlcNAc(b1-4)GlcNAc
# How it was run: as §1
# [27] = biological target: Gal(a1-3)Gal(b1-3)GlcNAc(b1-3)GalNAc
# How it was run: as §1
# [28] = biological target: Gal(a1-3)Gal(b1-3)GlcNAc(b1-6)GalNAc
# How it was run: as §1
# [29] = biological target: Gal(a1-3)Gal(b1-3)[Fuc(a1-4)]GlcNAc(b1-2)Man(a1-3)[Gal(a1-3)Gal(b1-3)[Fuc(a1-4)]GlcNAc(b1-2)Man(a1-6)]Man(b1-4)GlcNAc(b1-4)GlcNAc
# How it was run: as §1
# [30] = biological target: Gal(a1-3)Gal(b1-4)Glc
# How it was run: as §1
# [31] = biological target: Gal(a1-3)Gal(b1-4)GlcNAc
# How it was run: as §1
# [32] = biological target: Gal(a1-3)Gal(b1-4)GlcNAc(b1-2)Man
# How it was run: as §1
# [33] = biological target: Gal(a1-3)Gal(b1-4)GlcNAc(b1-2)Man(a1-3)[Gal(a1-3)Gal(b1-4)GlcNAc(b1-2)Man(a1-6)]Man(b1-4)GlcNAc(b1-4)GlcNAc
# How it was run: as §1
# [34] = biological target: Gal(a1-3)Gal(b1-4)GlcNAc(b1-3)GalNAc
# How it was run: as §1
# [35] = biological target: Gal(a1-3)Gal(b1-4)GlcNAc(b1-6)GalNAc
# How it was run: as §1
# [36] = biological target: Gal(a1-3)Gal(b1-4)[Fuc(a1-3)]GlcNAc
# How it was run: as §1
# [37] = biological target: Gal(a1-3)Gal(b1-4)[Fuc(a1-3)]GlcNAc(b1-2)Man(a1-3)[Gal(a1-3)Gal(b1-4)[Fuc(a1-3)]GlcNAc(b1-2)Man(a1-6)]Man(b1-4)GlcNAc(b1-4)GlcNAc
# How it was run: as §1
# [38] = biological target: Gal(a1-3)GalNAc
# How it was run: as §1
# [39] = biological target: Gal(a1-3)[Gal(a1-4)]Gal(b1-4)GlcNAc
# How it was run: as §1
# [40] = biological target: Gal(a1-4)Gal(b1-3)GlcNAc(b1-2)Man(a1-3)[Gal(a1-4)Gal(b1-3)GlcNAc(b1-2)Man(a1-6)]Man(b1-4)GlcNAc(b1-4)GlcNAc
# How it was run: as §1
# [41] = biological target: Gal(a1-4)Gal(b1-4)Glc
# How it was run: as §1
# [42] = biological target: Gal(a1-4)Gal(b1-4)GlcNAc
# How it was run: as §1
# [43] = biological target: Gal(a1-4)Gal(b1-4)GlcNAc(b1-2)Man(a1-3)[Gal(a1-4)Gal(b1-4)GlcNAc(b1-2)Man(a1-6)]Man(b1-4)GlcNAc(b1-4)GlcNAc
# How it was run: as §1
# [44] = biological target: Gal(a1-4)Gal(b1-4)GlcNAc(b1-3)Gal(b1-4)Glc
# How it was run: as §1
# [45] = biological target: Gal(a1-4)GlcNAc
# How it was run: as §1
# [46] = biological target: Gal(a1-6)Glc
# How it was run: as §1
# [47] = biological target: Gal(b1-2)Gal
# How it was run: as §1
# [48] = biological target: Gal(b1-3)Gal
# How it was run: as §1
# [49] = biological target: Gal(b1-3)Gal(b1-4)GlcNAc
# How it was run: as §1
# [50] = biological target: Gal(b1-3)GalNAc
# How it was run: as §1
# [51] = biological target: Gal(b1-3)GalNAc(a1-3)[Fuc(a1-2)]Gal(b1-4)Glc
# How it was run: as §1
# [52] = biological target: Gal(b1-3)GalNAc(a1-3)[Fuc(a1-2)]Gal(b1-4)GlcNAc
# How it was run: as §1
# [53] = biological target: Gal(b1-3)GalNAc(b1-3)Gal
# How it was run: as §1
# [54] = biological target: Gal(b1-3)GalNAc(b1-3)Gal(a1-4)Gal(b1-4)Glc
# How it was run: as §1
# [55] = biological target: Gal(b1-3)GalNAc(b1-4)Gal(b1-4)Glc
# How it was run: as §1
# [56] = biological target: Gal(b1-3)GalNAc(b1-4)[Neu5Ac(a2-3)]Gal(b1-4)Glc
# How it was run: as §1
# [57] = biological target: Gal(b1-3)GlcNAc
# How it was run: as §1
# [58] = biological target: Gal(b1-3)GlcNAc(a1-3)Gal(b1-4)GlcNAc
# How it was run: as §1
# [59] = biological target: Gal(b1-3)GlcNAc(a1-6)Gal(b1-4)GlcNAc
# How it was run: as §1
# [60] = biological target: Gal(b1-3)GlcNAc(b1-2)Man
# How it was run: as §1
binder,measurement,setting,value
B1,glycan array binding signal (z-score),[1],-1.05
same,glycan array binding signal (z-score),[2],-1.09
same,glycan array binding signal (z-score),[3],0.012
same,glycan array binding signal (z-score),[4],0.037
same,glycan array binding signal (z-score),[5],-0.592
same,glycan array binding signal (z-score),[6],-0.741
same,glycan array binding signal (z-score),[7],0.142
same,glycan array binding signal (z-score),[8],-0.974
same,glycan array binding signal (z-score),[9],0.532
same,glycan array binding signal (z-score),[10],-0.961
same,glycan array binding signal (z-score),[11],2.35
same,glycan array binding signal (z-score),[12],0.077
same,glycan array binding signal (z-score),[13],-0.649
same,glycan array binding signal (z-score),[14],0.613
same,glycan array binding signal (z-score),[15],0.616
same,glycan array binding signal (z-score),[16],-0.161
same,glycan array binding signal (z-score),[17],-0.123
same,glycan array binding signal (z-score),[18],0.35
same,glycan array binding signal (z-score),[19],-0.239
same,glycan array binding signal (z-score),[20],-0.788
same,glycan array binding signal (z-score),[21],-0.807
same,glycan array binding signal (z-score),[22],-0.065
same,glycan array binding signal (z-score),[23],-0.203
same,glycan array binding signal (z-score),[24],-1.18
same,glycan array binding signal (z-score),[25],-0.123
same,glycan array binding signal (z-score),[26],0.969
same,glycan array binding signal (z-score),[27],-0.114
same,glycan array binding signal (z-score),[28],0.271
same,glycan array binding signal (z-score),[29],0.787
same,glycan array binding signal (z-score),[30],1.01
same,glycan array binding signal (z-score),[31],-0.281
same,glycan array binding signal (z-score),[32],0.428
same,glycan array binding signal (z-score),[33],1.56
same,glycan array binding signal (z-score),[34],0.565
same,glycan array binding signal (z-score),[35],0.024
same,glycan array binding signal (z-score),[36],1
same,glycan array binding signal (z-score),[37],0.289
same,glycan array binding signal (z-score),[38],-0.405
same,glycan array binding signal (z-score),[39],0.622
same,glycan array binding signal (z-score),[40],4.1
same,glycan array binding signal (z-score),[41],0.391
same,glycan array binding signal (z-score),[42],0.212
same,glycan array binding signal (z-score),[43],0.12
same,glycan array binding signal (z-score),[44],-0.576
same,glycan array binding signal (z-score),[45],-0.477
same,glycan array binding signal (z-score),[46],0.63
same,glycan array binding signal (z-score),[47],0.384
same,glycan array binding signal (z-score),[48],0.702
same,glycan array binding signal (z-score),[49],-0.188
same,glycan array binding signal (z-score),[50],-0.251
same,glycan array binding signal (z-score),[51],-0.147
same,glycan array binding signal (z-score),[52],-1.17
same,glycan array binding signal (z-score),[53],-0.407
same,glycan array binding signal (z-score),[54],0.692
same,glycan array binding signal (z-score),[55],-1.04
same,glycan array binding signal (z-score),[56],-0.127
same,glycan array binding signal (z-score),[57],-0.473
same,glycan array binding signal (z-score),[58],-0.242
same,glycan array binding signal (z-score),[59],-0.335
same,glycan array binding signal (z-score),[60],1.46

# Some of the entries so far, tab-delimited.
binder	measurement	setting	value
B1	glycan array binding signal (z-score)	[17]	-0.123
same	glycan array binding signal (z-score)	[18]	0.35
